Results: patent US20260207548A1, “METHODS AND COMPOSITIONS FOR THE TREATMENT OF VASCULAR ANOMALIES” (THE CHILDREN'S MEDICAL CENTER CORPORATION, priority 2022, published 2026)
“Also recorded” adds a separate entry of the source.

How the values were obtained:
[1] = tested on: Hemangioma-derived stem cells (HemSC); assay: IH xenograft model: patient-derived HemSC in Matrigel injected subcutaneously into nude mice, human blood vessel formation; format: in vivo
Description: MilliporeSigma) was prepared in DMSO. […] Histology and IF analysis: […] Dako, Glostrup, 0823) to stain human ECs. Next, sections were incubated with Alexa Fluor 647 chicken anti-mouse IgG (1:200, Invitrogen, Thermo Fisher Scientific) as a secondary antibody (FIG. 9C, 9D).

murine blood vessels = conditions: maximum dose of simvastatin or atorvastatin vs vehicle

SMILES: CC(C)c1c(C(=O)Nc2ccccc2)c(-c2ccccc2)c(-c2ccc(F)cc2)n1CC[C@@H](O)C[C@@H](O)CC(=O)O [atorvastatin]
- vessel formation / vessel density ([1]; 1 mg/kg/d, i.p. twice a day, 7 days, vs vehicle): significantly inhibit vessel formation; also recorded: significant inhibitory effect on vessel formation; also recorded: significant reduction of vessel density
- vessel density (vessels/mm2) ([1]; atorvastatin 1, 5, 10 or 15 mg/kg/d every 12 hours for 7 days): significant reduction in vessel density at each dose
- density of murine blood vessels in the Matrigel implants (murine blood vessels): unaffected
